# According to the supplement of paper PMC12067093, “Discovery and optimisation of a covalent ligand for TRIM25 and its application to targeted protein ubiquitination” (Chemical Science, 2025):
# Amino acid sequences for entries named in this document (tags omitted). A change or cut given only in a name is not applied to a line headed by its entry.
# UniProt O75934: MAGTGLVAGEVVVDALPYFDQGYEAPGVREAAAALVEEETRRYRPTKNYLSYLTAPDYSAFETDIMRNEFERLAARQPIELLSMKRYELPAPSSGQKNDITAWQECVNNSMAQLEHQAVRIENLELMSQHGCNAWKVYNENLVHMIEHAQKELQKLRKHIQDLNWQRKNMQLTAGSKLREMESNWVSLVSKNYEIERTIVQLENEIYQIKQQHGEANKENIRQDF
# UniProt P54132: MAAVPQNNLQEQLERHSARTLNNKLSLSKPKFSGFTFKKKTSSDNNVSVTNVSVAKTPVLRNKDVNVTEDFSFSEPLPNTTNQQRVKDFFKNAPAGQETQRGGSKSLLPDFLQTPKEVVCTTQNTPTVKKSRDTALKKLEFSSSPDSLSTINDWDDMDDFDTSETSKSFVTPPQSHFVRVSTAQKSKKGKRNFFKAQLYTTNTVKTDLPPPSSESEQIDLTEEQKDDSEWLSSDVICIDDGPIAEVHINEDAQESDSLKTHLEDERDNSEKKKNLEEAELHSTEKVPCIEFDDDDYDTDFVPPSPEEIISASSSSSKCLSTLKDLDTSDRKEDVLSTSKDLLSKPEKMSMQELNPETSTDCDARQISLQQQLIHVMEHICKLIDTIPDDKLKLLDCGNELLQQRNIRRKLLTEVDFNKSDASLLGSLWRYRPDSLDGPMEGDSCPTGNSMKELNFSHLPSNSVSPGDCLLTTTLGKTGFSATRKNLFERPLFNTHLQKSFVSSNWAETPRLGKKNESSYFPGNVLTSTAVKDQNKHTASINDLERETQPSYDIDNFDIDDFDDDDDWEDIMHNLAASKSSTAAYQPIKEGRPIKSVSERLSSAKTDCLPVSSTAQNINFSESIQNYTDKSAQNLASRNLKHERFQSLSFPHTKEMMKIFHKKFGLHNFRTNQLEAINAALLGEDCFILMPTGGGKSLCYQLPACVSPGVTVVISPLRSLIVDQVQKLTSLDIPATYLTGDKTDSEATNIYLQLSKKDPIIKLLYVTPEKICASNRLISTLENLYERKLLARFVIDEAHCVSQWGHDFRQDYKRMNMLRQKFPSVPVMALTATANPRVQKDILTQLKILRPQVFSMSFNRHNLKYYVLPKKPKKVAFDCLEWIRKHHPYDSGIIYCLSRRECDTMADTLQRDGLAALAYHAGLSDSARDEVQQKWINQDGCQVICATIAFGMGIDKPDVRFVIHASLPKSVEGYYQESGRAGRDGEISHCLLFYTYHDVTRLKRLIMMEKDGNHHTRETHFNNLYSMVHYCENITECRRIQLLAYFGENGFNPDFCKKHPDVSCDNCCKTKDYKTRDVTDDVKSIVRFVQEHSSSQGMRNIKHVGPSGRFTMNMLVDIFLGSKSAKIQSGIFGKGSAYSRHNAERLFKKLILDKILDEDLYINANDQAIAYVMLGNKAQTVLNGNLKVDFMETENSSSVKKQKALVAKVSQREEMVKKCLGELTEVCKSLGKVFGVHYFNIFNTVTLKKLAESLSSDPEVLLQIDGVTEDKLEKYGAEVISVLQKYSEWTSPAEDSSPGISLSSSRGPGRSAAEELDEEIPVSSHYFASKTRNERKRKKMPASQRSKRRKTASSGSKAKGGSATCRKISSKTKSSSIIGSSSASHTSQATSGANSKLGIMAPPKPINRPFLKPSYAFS
# UniProt P53004: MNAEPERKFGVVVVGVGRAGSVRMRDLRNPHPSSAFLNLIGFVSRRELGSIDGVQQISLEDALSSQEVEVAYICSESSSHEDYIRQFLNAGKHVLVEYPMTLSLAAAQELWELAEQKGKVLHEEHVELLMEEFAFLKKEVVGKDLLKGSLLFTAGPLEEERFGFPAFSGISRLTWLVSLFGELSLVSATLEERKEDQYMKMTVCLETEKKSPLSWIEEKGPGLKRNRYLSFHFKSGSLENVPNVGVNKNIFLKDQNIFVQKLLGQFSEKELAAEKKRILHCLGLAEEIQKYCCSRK
# UniProt Q6ZT62: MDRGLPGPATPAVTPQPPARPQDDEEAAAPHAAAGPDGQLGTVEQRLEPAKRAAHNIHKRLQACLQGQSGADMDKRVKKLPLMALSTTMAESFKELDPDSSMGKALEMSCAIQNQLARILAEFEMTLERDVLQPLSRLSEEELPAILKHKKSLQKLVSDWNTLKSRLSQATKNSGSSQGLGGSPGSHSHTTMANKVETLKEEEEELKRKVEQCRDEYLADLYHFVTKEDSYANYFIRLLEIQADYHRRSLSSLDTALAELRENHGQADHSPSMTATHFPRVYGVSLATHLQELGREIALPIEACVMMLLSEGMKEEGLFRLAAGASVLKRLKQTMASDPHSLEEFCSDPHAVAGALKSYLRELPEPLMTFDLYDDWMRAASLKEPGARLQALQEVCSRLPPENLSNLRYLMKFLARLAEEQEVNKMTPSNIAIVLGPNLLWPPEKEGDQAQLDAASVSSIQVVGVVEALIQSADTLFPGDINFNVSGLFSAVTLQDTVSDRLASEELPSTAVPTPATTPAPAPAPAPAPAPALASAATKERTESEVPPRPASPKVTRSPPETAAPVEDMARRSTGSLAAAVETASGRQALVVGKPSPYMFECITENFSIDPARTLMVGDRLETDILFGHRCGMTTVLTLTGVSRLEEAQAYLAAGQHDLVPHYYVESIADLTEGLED
# UniProt P21953: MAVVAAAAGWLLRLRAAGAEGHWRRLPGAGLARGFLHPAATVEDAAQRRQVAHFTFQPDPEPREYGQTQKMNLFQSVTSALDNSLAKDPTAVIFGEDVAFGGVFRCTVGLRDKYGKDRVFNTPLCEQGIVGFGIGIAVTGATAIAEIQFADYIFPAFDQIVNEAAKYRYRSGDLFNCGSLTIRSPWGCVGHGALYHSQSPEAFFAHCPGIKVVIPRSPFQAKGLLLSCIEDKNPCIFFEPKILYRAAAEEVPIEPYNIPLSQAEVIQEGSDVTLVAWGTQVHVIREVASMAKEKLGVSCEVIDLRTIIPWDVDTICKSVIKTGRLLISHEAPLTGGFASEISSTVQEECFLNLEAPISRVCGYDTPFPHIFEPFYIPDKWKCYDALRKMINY
# UniProt Q9NRL2: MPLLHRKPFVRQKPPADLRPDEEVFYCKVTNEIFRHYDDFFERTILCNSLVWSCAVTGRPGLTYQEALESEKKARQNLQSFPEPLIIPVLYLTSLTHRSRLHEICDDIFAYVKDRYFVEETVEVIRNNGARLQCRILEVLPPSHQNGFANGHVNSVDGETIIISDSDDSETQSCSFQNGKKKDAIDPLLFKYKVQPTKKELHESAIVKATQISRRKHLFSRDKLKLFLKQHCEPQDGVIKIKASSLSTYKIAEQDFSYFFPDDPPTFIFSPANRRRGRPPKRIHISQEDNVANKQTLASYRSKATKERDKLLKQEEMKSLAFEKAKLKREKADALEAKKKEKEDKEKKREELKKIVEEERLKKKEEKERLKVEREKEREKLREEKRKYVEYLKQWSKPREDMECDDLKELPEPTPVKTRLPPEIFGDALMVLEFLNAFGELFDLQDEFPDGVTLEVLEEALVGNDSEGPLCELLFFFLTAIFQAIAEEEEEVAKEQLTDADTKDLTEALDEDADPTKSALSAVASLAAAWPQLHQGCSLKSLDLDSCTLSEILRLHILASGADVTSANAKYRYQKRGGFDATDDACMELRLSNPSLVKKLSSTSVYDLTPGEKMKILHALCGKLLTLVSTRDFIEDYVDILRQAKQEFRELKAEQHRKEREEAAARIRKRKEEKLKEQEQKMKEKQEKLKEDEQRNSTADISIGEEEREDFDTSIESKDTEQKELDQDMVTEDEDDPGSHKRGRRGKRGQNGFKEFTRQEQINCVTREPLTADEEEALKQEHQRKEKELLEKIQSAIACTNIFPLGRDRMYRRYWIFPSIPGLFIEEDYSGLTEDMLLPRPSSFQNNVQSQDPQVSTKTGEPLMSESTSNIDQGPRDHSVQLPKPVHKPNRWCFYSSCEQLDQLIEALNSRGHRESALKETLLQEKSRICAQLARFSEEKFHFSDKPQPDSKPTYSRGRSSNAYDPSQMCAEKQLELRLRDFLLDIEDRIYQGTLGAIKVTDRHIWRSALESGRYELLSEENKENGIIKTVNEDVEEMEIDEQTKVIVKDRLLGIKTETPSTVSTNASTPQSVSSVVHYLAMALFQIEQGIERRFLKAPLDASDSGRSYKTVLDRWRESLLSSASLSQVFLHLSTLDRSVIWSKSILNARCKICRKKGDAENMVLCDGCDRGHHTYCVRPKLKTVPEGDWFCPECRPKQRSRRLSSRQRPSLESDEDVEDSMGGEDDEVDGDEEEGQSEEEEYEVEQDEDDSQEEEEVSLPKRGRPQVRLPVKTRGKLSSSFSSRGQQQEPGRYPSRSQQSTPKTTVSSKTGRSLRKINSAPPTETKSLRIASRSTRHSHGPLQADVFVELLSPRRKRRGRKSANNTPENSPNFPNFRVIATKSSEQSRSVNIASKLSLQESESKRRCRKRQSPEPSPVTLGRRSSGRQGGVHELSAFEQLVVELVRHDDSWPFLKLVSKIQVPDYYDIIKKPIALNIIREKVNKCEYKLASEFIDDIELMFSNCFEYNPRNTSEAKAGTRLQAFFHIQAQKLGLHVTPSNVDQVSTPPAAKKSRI
# UniProt Q96GS4: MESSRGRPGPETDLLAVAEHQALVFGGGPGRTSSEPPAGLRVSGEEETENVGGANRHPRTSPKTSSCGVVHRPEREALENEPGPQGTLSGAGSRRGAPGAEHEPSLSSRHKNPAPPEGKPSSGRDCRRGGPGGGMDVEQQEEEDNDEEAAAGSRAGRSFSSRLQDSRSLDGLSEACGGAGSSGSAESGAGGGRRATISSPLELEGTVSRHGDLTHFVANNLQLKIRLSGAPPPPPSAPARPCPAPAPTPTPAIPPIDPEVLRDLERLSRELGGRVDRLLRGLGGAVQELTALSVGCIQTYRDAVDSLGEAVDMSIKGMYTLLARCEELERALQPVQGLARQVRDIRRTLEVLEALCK
# UniProt Q9UL15: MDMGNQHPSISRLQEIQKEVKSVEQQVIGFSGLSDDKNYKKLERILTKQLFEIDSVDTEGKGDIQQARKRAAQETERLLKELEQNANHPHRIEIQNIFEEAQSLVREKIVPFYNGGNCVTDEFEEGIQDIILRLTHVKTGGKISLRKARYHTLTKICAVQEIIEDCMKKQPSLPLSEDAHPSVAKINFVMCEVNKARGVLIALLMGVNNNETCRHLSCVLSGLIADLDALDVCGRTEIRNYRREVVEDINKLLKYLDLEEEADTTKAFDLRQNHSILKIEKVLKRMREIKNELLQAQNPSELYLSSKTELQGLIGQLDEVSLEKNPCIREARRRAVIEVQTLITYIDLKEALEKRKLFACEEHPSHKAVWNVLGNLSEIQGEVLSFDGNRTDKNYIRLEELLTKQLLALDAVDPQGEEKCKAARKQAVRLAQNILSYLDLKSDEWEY
# UniProt Q13323: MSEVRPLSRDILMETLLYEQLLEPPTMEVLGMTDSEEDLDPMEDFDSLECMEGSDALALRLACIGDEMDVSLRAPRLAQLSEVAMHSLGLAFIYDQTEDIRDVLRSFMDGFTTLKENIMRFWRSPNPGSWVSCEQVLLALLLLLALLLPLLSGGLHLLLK
# UniProt Q99933: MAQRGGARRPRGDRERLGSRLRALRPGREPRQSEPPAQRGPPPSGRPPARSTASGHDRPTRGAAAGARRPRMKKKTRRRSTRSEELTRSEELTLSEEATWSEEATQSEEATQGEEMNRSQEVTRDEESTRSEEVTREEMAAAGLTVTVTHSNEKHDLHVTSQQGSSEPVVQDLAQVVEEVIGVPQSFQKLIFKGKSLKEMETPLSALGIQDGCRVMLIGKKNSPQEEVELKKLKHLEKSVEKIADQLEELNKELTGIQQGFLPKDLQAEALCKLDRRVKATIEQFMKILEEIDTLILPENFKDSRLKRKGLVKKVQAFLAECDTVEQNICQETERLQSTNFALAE
# UniProt Q9NWV8, whole entry, looked up: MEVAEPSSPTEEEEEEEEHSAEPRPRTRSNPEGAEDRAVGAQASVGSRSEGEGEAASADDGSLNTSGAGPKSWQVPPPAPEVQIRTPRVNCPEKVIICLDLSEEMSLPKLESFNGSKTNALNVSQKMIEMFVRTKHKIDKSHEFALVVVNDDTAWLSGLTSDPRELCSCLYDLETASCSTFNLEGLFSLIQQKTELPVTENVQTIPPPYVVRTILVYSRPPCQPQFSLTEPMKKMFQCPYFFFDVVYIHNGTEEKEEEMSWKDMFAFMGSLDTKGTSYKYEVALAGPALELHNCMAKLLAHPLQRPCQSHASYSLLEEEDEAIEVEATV
# The other results are listed elsewhere or left out.
# Compound: CC1Cc2ccccc2N1C(=O)C1CCCN(C1)C(=O)CCl (mixture of isomers) [TRIM25 ligand 11 (diastereomer mixture)]
# Assay: probe-labelled cysteine peptide fold change vs DMSO (competition) (log2 fold change); higher = less target engagement (more negative = stronger competition)
# Details: THP-1, incubation time: 4 h
# 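Note: competitive chemoproteomic profiling in live THP-1 cells with an iodoacetamide desthiobiotin (IA-DTB) probe, comparing probe-labelled peptide intensities in compound-treated cells against DMSO-treated controls.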
Target,probe-labelled cysteine peptide fold change (10 µM),probe-labelled cysteine peptide fold change (50 µM)
BCAS2_O75934_132_IENLELMSQHGCNAWK (UniProt O75934),-0.0127,-0.0991
BLM_P54132_1364_GGSATCR (UniProt P54132),-0.0198,-0.0557
BAZ1B_Q9UIG0_1393+1395_CSCGSYR (UniProt Q9UIG0),0.0934,0.07
BLVRA_P53004_281_ILHCLGLAEEIQK (UniProt P53004),-0.116,-0.0536
BARGIN_Q6ZT62_213_KVEQCRDEYLADLYHFVTK (UniProt Q6ZT62),-0.11,0.0581
BCKDHB_P21953_299_LGVSCEVIDLR (UniProt P21953),0.0507,-0.0397
BAZ1A_Q9NRL2_537_SALSAVASLAAAWPQLHQGCSLK (UniProt Q9NRL2),-0.0957,-0.232
BOP1_Q14137_108_KTTEEQVQASTPCPR (UniProt Q14137),-0.18,-0.225
BIRC6_Q9NR09_2067_HLCISGTPK (UniProt Q9NR09),0.0333,0.185
BORCS6_Q96GS4_67_TSSCGVVHRPER (UniProt Q96GS4),-0.031,-0.0929
BAZ1B_Q9UIG0_120_YAVGEECDFEVGK (UniProt Q9UIG0),-0.0349,-0.0339
AZU1_P20160_207_RGGICNGDGGTPLVCEGLAHGVASFSLGPCGR (UniProt P20160),0.241,0.307
AZU1_P20160_68_FVMTAASCFQSQNPGVSTVVLGAYDLR (UniProt P20160),-0.151,-0.152
BAG5_Q9UL15_218_HLSCVLSGLIADLDALDVCGR (UniProt Q9UL15),-0.178,-0.439
BIRC6_Q9NR09_1357_TDDGQITEHAQSLVLDTLCWLAGVHSNGPGSSK (UniProt Q9NR09),-0.0242,-0.0222
BAZ1B_Q9UIG0_1228+1231_AFHLFCLRPALYEVPDGEWQCPACQPATAR (UniProt Q9UIG0),0.129,0.0156
BIK_Q13323_63_LACIGDEMDVSLR (UniProt Q13323),0.0736,-0.0199
BCKDK_O14874_222_MLATHHLALHEDKPDFVGIICTR (UniProt O14874),-0.00244,0.273
BARGIN_Q6ZT62_346_QTMASDPHSLEEFCSDPHAVAGALK (UniProt Q6ZT62),-0.0814,-0.00364

Target,probe-labelled cysteine peptide fold change (10 µM),probe-labelled cysteine peptide fold change (50 µM)
BIRC6_Q9NR09_613_TQGESISEQGSTDNESCTNSELNSPLVR (UniProt Q9NR09),-0.0519,-0.309
BIRC6_Q9NR09_4601_CDEERLDIMK (UniProt Q9NR09),-0.138,-0.0807
BAZ1A_Q9NRL2_586_RGGFDATDDACMELR (UniProt Q9NRL2),0.0933,0.03
ATRX_P46100_1576_LKPHQVDGVQFMWDCCCESVK (UniProt P46100),0.101,-0.0863
BAG5_Q9UL15_191_INFVMCEVNK (UniProt Q9UL15),0.0985,0.111
BAG5_Q9UL15_157_ICAVQEIIEDCMK (UniProt Q9UL15),0.0482,-0.0569
BLM_P54132_799_FVIDEAHCVSQWGHDFR (UniProt P54132),0.0622,0.0557
BCKDK_O14874_111+118_CLPFIIGCNPTILHVHELYIR (UniProt O14874),0.153,0.248
BORCS6_Q96GS4_356_TLEVLEALCK (UniProt Q96GS4),0.0111,0.13
BCOR_Q6W2J9_1080_SVTLEEAIAEQNESERCEYSVGNK (UniProt Q6W2J9),-0.122,-0.41
BAG1_Q99933_330_KVQAFLAECDTVEQNICQETER (UniProt Q99933),-0.0556,-0.1
B4GALT7_Q9UBV7_307_TALSVGGAPCTVLNIMLDCDK (UniProt Q9UBV7),0.43,0.0101
B4GALT3_O60512_190+209_EALRDEEWDCLFLHDVDLLPENDHNLYVCDPR (UniProt O60512),0.508,0.0545
BLM_P54132_380_QISLQQQLIHVMEHICK (UniProt P54132),-0.0581,-0.0667
BABAM1_Q9NWV8_294_YEVALAGPALELHNCMAK (UniProt Q9NWV8),0.131,0.114
BAZ1B_Q9UIG0_1348_CEEILHK (UniProt Q9UIG0),0.0165,-0.00188
BAZ1B_Q9UIG0_1205_LILCDECNK (UniProt Q9UIG0),0.063,-0.0506
BLM_P54132_444_YRPDSLDGPMEGDSCPTGNSMK (UniProt P54132),-0.0625,-0.266

# A second format for some results above.
Target	probe-labelled cysteine peptide fold change (10 µM)	probe-labelled cysteine peptide fold change (50 µM)
BABAM1_Q9NWV8_294_YEVALAGPALELHNCMAK (UniProt Q9NWV8)	0.131	0.114
BAZ1B_Q9UIG0_1348_CEEILHK (UniProt Q9UIG0)	0.0165	-0.00188
